The target in the assay is GFP-tagged PC1-5TMC (polycystin-1 truncation comprising the last 5 TMs plus C-terminus, aa 3895-4302) (UniProt P98161). Kind of assay: co-IP; HeLa cells transfected with pEGFP-PC1-5TMC or pEGFP, collected 40 hr after transfection; extract immunoprecipitated with anti-GFP (EU4); blot with anti-GFP (B-2), reprobed with anti-mTOR or anti-PKR.

Protein sequences, listed by entry. Tags and fused reporters are not part of them. Residues count along the entry.
UniProt P98161, residues 3895-4302: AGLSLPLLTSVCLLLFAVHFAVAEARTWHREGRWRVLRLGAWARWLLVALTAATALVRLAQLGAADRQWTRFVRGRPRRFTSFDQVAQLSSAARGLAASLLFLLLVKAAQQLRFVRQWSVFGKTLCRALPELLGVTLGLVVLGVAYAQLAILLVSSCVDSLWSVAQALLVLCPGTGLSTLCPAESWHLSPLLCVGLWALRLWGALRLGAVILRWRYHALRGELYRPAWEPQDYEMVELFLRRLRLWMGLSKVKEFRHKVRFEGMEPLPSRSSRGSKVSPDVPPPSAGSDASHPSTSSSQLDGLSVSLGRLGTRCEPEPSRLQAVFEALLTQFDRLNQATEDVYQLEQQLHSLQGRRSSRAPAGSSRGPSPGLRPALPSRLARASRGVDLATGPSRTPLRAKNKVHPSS
UniProt P19525: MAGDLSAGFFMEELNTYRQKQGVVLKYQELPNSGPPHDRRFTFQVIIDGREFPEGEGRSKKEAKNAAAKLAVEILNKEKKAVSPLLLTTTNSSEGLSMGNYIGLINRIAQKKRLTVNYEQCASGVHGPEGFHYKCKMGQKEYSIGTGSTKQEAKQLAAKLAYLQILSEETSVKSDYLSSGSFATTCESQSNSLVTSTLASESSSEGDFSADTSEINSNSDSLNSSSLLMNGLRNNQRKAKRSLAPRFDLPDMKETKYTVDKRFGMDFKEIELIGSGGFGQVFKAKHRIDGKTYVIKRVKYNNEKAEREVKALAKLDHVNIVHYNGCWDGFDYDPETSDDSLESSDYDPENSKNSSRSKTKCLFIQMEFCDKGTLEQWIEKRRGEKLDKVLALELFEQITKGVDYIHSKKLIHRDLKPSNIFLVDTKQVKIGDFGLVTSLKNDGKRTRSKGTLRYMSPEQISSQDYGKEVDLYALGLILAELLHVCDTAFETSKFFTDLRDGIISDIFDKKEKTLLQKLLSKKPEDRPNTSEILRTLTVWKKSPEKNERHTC

These are yes or no findings as the source states them, for the method shown. Binding seen in cells or lysates may run through a third protein. Some results given as binding are weak or reduced against the parent protein; the word gives no strength.

For the substance “Protein kinase RNA-activated (PKR) (from UniProt P19525 1-551)”, the binding result was “binds”.

The record behind these values is publication PMC6612395.
